The whole screen tested about 2,000 compounds, of which about 45 (2%) were called active.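 The calls were made as follows: active = inhibition above the screen-wide mean inhibition plus 3 SD (cut at about 44% in these data); inactive = the rest.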 The list shows a part of the results.
Target: Perilipin-1 (Homo sapiens) + 1-acylglycerol-3-phosphate O-acyltransferase ABHD5 (Homo sapiens) (UniProt O60240+Q8WTS1)
Test: blockers of ABHD5 binding to perilipin-1 – cell lysate, split luciferase complementation, luminescence, NIH validation set, pilot screen (AID 493027);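 also: 0% = DMSO wells with the 100% control not disclosed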
Conditions: split G. princeps luciferase complementation, 4 h; at 7.9 µM, active compounds read high

Chains of the proteins cited; added tags and fusions are not shown. Lines headed by an entry give the natural chain unless they say otherwise; changes in a name come on top.
UniProt O60240: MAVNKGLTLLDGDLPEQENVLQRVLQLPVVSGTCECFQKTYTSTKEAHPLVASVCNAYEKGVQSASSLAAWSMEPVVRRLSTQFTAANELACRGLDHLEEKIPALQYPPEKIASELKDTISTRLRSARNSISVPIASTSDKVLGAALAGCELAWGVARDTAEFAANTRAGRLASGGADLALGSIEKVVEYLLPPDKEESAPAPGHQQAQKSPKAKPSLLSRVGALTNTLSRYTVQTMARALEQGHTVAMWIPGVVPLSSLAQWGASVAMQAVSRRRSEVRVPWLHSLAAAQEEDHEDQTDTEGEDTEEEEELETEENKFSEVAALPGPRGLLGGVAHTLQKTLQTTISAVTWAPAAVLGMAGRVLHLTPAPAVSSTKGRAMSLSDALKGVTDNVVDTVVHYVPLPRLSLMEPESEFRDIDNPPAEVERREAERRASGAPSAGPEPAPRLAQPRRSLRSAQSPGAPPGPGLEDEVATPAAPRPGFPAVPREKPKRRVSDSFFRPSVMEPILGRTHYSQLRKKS
UniProt Q8WTS1: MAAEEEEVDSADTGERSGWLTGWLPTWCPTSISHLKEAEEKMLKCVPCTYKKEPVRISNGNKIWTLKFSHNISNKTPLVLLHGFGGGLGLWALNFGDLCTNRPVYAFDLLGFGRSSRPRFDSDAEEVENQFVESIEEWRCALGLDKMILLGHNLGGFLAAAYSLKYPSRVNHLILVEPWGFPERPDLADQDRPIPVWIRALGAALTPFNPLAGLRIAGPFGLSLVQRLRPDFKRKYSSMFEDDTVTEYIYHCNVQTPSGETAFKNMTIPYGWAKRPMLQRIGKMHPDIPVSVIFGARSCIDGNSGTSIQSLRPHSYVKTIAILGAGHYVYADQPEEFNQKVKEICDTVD

inhibition, inactive:
Cn1cc(CN(CCO)Cc2cccs2)c(-c2cccc(Cl)c2)n1 -0.84%
COc1ccc2oc(C)c(C(N)=O)c2c1 -3.2%
CN1CCN(CC/C=C2/c3ccccc3Sc3ccc(S(=O)(=O)N(C)C)cc32)CC1 4.05%
CC(=O)OC(CC(=O)O)C[N+](C)(C)C (stereo unspecified) -12.8%
CC1(C)Cc2ccccc2C(C(Cc2ccccc2)C(N)=O)=N1 (stereo unspecified) -5.58%
Cc1ccc2[nH]c3c(c2c1)CN(C)CC3 -2.27%
CC(C)CCOCC(=O)Nc1cccc(C(=O)O)c1 -3.29%
CC(=O)c1cc2c(cc1NC(=O)c1ccco1)OCCO2 -0.37%
CCCc1cc(C(N)=S)ccn1 -3.81%
COc1ccc(NC(=O)C2CCCN2C(=O)OC(C)(C)C)cc1 (stereo unspecified) -11.3%
CC(=O)Nc1ccc(OS(=O)(=O)c2c(C)cc(C)cc2C)cc1 1.17%
CC(=O)OCC(=O)[C@@]1(O)CC[C@H]2[C@@H]3CCC4=CC(=O)CC[C@]4(C)[C@H]3[C@@H](O)C[C@@]21C 2.83%
O=C(NC(=S)Nc1ccc2c(c1)OCCO2)c1ccccc1F -3.88%
NS(=O)(=O)c1cc(C2(O)NC(=O)c3ccccc32)ccc1Cl (stereo unspecified) 8.72%
O=C(NCc1ccc2c(c1)OCO2)c1ccc2c(c1)OCCO2 -4.38%
O=C(O)CCCCCCCC(=O)O -5.68%
COc1ccc(C(=O)NCC2OCCc3ccccc32)cc1 (stereo unspecified) 5.88%
CCCCN(CCCC)CCCOC(=O)c1ccc(N)cc1 -0.98%
CC[N+](C)(C)c1cccc(O)c1 -6.49%
Cc1ccc(-c2nnc(-c3ccc4c(c3)OCO4)o2)cc1 -6.07%
COc1cc(/C=C/C(=O)O)cc(S(=O)(=O)NCCCO)c1OC -7.07%
O=C(NC(=S)Nc1ccc(N2CCN(C(=O)c3ccccc3)CC2)cc1)c1cccs1 13.1%
COc1ccc2[nH]c(=O)c3c(c2c1)OC(C)(C)C=C3 -6.15%
CN(C)c1ccc(C(CN)c2c[nH]c3ccccc23)cc1 (stereo unspecified) 31.5%
CCOc1ccccc1Oc1coc2cc(OCC(=O)O)ccc2c1=O -5.23%
CCn1cc(CN2N=C(C)CC2c2ccccc2)c(C)n1 (stereo unspecified) 1.27%
CC[N+](C)(CC)CCOC(=O)C(O)(c1ccccc1)C1CCCCC1 (stereo unspecified) -8.98%
C/C=C/c1ccc(OCCCCN2CC(C)CC(C)C2)c(OC)c1 (stereo unspecified) -3.75%
O=C(Cc1ccc(Br)cc1)c1ccc(O)cc1O 11.4%
COc1c(O)ccc2c1CN1CCc3cc4c(cc3C1C2)OCO4 (stereo unspecified) -0.53%
CCNC1=C(Cl)C(=O)c2ccccc2C1=O -12.7%
COC(=O)C1=C(C)NC(C)=C([N+](=O)[O-])C1c1ccccc1C(F)(F)F (stereo unspecified) 1.42%
Nc1ccc(-c2nc3ncccc3o2)c(Cl)c1 -7.73%
O=C1C2CC=C(Cl)CC2C(=O)N1CCc1c[nH]c2ccccc12 (stereo unspecified) -0.58%
CN(C)CCCN1c2ccccc2Sc2ccc(C(F)(F)F)cc21 -6.54%
Cc1ccc2c(c1)c1c(n2C)C(=O)CCC1 -0.2%
N#CCC(N)=C(C#N)C#N -8.27%
CCN(CC)CCOC(=O)C1(C2CCCCC2)CCCCC1 -12.7%
COc1ccc(OC)c(-c2oc3ccccc3c(=O)c2O)c1 -12.2%
Cc1nc2ccccc2c(=O)n1N -10.4%
Cc1cccc(N2C(=O)C3C(c4ccccc4)OC4(C(=O)c5ccccc5C4=O)C3C2=O)c1 (stereo unspecified) 10.6%
CN1CCN(C2=Nc3ccccc3Oc3ccc(Cl)cc32)CC1 -8.87%
O=C1C(O)CC2c3ccccc3CC3(CCCC3)N12 (stereo unspecified) -0.58%
COc1ccccc1N1C(=O)C2CC(C)=C(C)CC2C1=O (stereo unspecified) -6.79%
CCCCCCCCCC(=O)OCC(O)CO (stereo unspecified) 0.88%
O=C1N=c2ccccc2=C1c1[nH]c(=S)[nH]c1O -9.29%
O=C(/C=C/c1ccc(F)cc1)N1CC[C@@]2(O)CCCC[C@H]2C1 -4.91%
O=C(O)Cc1ccc(-c2ccccc2)cc1 2.1%
CCOC(=O)C1=C2c3ccc4ccccc4c3CC(C)(C)N2C(=O)C1=O 8.12%
C[C@@H]1C[C@H]2[C@@H]3C[C@H](F)C4=CC(=O)C=C[C@]4(C)[C@@]3(F)[C@@H](O)C[C@]2(C)[C@@]1(O)C(=O)CO -5.01%
CC(C)(C)C(=O)Nc1cccc(OC(F)(F)C(F)Cl)c1 (stereo unspecified) -7.9%
O=C(O)CCSc1nc2ccccc2s1 0.7%
COCCCC/C(=N\OCCN)c1ccc(C(F)(F)F)cc1 -0.43%
C[C@]12CCC(=O)C=C1CC[C@@H]1[C@@H]2C(=O)C[C@@]2(C)[C@H]1CC[C@]2(O)C(=O)CO -6.41%
CC1CCN(C(=O)Oc2ccccc2)CC1 -1.86%
Cc1ccc2[nH]c(=O)c(Cc3ccccc3)c(O)c2c1 -11.7%
CCOC(=O)N1CCC(=C2c3ccc(Cl)cc3CCc3cccnc32)CC1 19.3%
NC(=O)c1ccccc1O 2.65%
N/C(=N\OS(=O)(=O)c1ccc2ccccc2c1)c1cccnc1 0.01%
CSCC[C@H](NC(=O)Nc1ccc(C)cc1C)C(=O)O -8.71%
O=C(CN1C(=O)/C(=C/c2cccc(Br)c2)SC1=S)Nc1cccnc1 37.2%
CC(C)=CC/C=C1\CCC(C(=O)O)C(C(=O)O)C1 (stereo unspecified) -1.23%
CCc1cc(=O)oc2cc(OCC=C(C)C)ccc12 -8.55%
Clc1ccc2c(c1)C(N1CCNCC1)=Nc1ccccc1O2 -11.5%
O=C1c2ccccc2C(=O)C1c1ccccc1 -6.84%
CN(C)c1ccc(O)c2c1CC1CC3[C@@H](N(C)C)C(=O)C(C(N)=O)=C(O)[C@]3(O)C(=O)C1=C2O (stereo partly specified) 1.5%

2 entries drawn at random from those above:
inhibition, inactive:
C/C=C/c1ccc(OCCCCN2CC(C)CC(C)C2)c(OC)c1 (stereo unspecified) -3.75%
CC(=O)OCC(=O)[C@@]1(O)CC[C@H]2[C@@H]3CCC4=CC(=O)CC[C@]4(C)[C@H]3[C@@H](O)C[C@@]21C 2.83%

Source: PubChem BioAssay AID493027 (The Scripps Research Institute Molecular Screening Center, 2011)
